Assay results: publication PMC9035678
No constants are given. Whether binding was seen depends on the method and setting. In cells and extracts the contact can be indirect. Here binding means that the protein was enriched with, or labelled near, the bait; the list need not be complete. Where a sequence is shown, tags or fusion partners need not be part of it.

Sequences of proteins named here, by UniProt entry; tags and fusion partners are left off.
UniProt Q39255: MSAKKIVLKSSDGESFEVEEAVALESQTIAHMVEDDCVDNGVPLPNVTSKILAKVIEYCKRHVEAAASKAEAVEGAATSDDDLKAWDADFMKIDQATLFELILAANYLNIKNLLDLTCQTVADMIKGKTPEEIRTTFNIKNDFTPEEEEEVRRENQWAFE
UniProt Q94AH6: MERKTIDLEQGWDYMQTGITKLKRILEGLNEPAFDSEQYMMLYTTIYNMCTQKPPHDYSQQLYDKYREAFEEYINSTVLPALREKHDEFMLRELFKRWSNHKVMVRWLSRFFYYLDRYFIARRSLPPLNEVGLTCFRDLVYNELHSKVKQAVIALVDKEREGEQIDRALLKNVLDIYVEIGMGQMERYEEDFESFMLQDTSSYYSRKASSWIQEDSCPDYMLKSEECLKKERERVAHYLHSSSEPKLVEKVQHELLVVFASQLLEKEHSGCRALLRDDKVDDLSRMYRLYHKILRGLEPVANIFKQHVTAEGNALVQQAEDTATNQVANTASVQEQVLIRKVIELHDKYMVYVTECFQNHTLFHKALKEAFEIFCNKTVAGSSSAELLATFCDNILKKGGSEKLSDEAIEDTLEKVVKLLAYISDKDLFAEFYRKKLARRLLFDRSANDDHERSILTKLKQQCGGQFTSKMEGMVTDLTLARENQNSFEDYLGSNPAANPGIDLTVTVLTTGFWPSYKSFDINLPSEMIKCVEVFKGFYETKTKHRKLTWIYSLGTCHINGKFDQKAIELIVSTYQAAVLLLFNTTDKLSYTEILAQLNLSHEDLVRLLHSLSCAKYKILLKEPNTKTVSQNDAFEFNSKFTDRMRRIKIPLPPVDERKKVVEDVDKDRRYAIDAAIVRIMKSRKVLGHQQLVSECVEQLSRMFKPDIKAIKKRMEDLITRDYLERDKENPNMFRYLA

T1: 3HA-FBW2 (3x human influenza hemagglutinin (HA)-epitope at the N terminus of FBW2) (Arabidopsis thaliana) (UniProt Q9ZPE4)
T1 sequence: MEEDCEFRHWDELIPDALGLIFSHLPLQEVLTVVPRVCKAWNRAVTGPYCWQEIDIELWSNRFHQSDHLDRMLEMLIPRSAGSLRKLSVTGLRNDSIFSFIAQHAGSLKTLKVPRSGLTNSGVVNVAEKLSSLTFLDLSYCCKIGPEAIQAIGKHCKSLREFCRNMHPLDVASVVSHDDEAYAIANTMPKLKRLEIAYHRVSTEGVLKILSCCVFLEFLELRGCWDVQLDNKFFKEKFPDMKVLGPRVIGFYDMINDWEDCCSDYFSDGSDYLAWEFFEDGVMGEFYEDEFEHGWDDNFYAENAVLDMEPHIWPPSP

B1: ARGONAUTE1 (AGO1) (protein, UniProt O04379 1-1048)
chain: MVRKRRTDAPSEGGEGSGSREAGPVSGGGRGSQRGGFQQGGGQHQGGRGYTPQPQQGGRGGRGYGQPPQQQQQYGGPQEYQGRGRGGPPHQGGRGGYGGGRGGGPSSGPPQRQSVPELHQATSPTYQAVSSQPTLSEVSPTQVPEPTVLAQQFEQLSVEQGAPSQAIQPIPSSSKAFKFPMRPGKGQSGKRCIVKANHFFAELPDKDLHHYDVTITPEVTSRGVNRAVMKQLVDNYRDSHLGSRLPAYDGRKSLYTAGPLPFNSKEFRINLLDEEVGAGGQRREREFKVVIKLVARADLHHLGMFLEGKQSDAPQEALQVLDIVLRELPTSRYIPVGRSFYSPDIGKKQSLGDGLESWRGFYQSIRPTQMGLSLNIDMSSTAFIEANPVIQFVCDLLNRDISSRPLSDADRVKIKKALRGVKVEVTHRGNMRRKYRISGLTAVATRELTFPVDERNTQKSVVEYFHETYGFRIQHTQLPCLQVGNSNRPNYLPMEVCKIVEGQRYSKRLNERQITALLKVTCQRPIDREKDILQTVQLNDYAKDNYAQEFGIKISTSLASVEARILPPPWLKYHESGREGTCLPQVGQWNMMNKKMINGGTVNNWICINFSRQVQDNLARTFCQELAQMCYVSGMAFNPEPVLPPVSARPEQVEKVLKTRYHDATSKLSQGKEIDLLIVILPDNNGSLYGDLKRICETELGIVSQCCLTKHVFKMSKQYMANVALKINVKVGGRNTVLVDALSRRIPLVSDRPTIIFGADVTHPHPGEDSSPSIAAVVASQDWPEITKYAGLVCAQAHRQELIQDLFKEWKDPQKGVVTGGMIKELLIAFRRSTGHKPLRIIFYRDGVSEGQFYQVLLYELDAIRKACASLEAGYQPPVTFVVVQKRHHTRLFAQNHNDRHSVDRSGNILPGTVVDSKICHPTEFDFYLCSHAGIQGTSRPAHYHVLWDENNFTADGLQSLTNNLCYTYARCTRSVSIVPPAYYAHLAAFRARFYMEPETSDSGSMASGSMARGGGMAGRSTRGPNVNAAVRPLPALKENVKRVMFYC
B2: DNAJ homolog J3 (protein, UniProt Q94AW8 1-420)
chain: MFGRGPSKKSDNTKFYEILGVPKSASPEDLKKAYKKAAIKNHPDKGGDPEKFKELAQAYEVLSDPEKREIYDQYGEDALKEGMGGGGGGHDPFDIFSSFFGGGPFGGNTSRQRRQRRGEDVVHPLKVSLEDVYLGTMKKLSLSRNALCSKCNGKGSKSGASLKCGGCQGSGMKVSIRQLGPGMIQQMQHACNECKGTGETINDRDRCPQCKGDKVIPEKKVLEVNVEKGMQHSQKITFEGQADEAPDTVTGDIVFVLQQKEHPKFKRKGEDLFVEHTLSLTEALCGFQFVLTHLDGRSLLIKSNPGEVVKPDSYKAISDEGMPIYQRPFMKGKLYIHFTVEFPDSLSPDQTKALEAVLPKPSTAQLSDMEIDECEETTLHDVNIEDEMRRKAQAQREAYDDDDEDDDHPGGAQRVQCAQQ
B3: ASK21 (protein, UniProt Q8LF97 1-351)
chain: MSEGEMAIIKPEMMKSYIWLETADGSIQQVEQEVAMFCPMICQEVIQKGVGSSKNYAISLPQRVNPAMLSLIFDYCRFHQVPGRSNKERKVYDEKFIRMDTKRLCELTSAADSLQLKPLVDLTSRALARIIEGKTPEEIREIFHLPDDLTEEEKLEPLKNTMDDPRIRLLNRLYAKKRKELKEREKLKSVEVEEHVDERSVDDLLSFINGRDPKVVKTSKSKKKNKKRKEQKNGSSNGTCEALEKDLHNLDSKSQSAEIVDNTASCLGDVSNLPSMEDDIFTPKTEFEDGYIDDEIDPALKELLDREVEDFARRLNSSWVLSIGQERQPVNFSINGNGTSRRLTGPAAGHK
B4: ASK20 (protein, UniProt A8MQG7 1-352)
chain: MSEGDLAVMKPETMKSYIWLQTADGSIQQVEQEVAMFCPMICQEVIQKGVGSSKNHAISLPQRVNPAMFSLILDYCRFHQLPGRSNKERKTYDERFIRMDTKRLCELTSAADSLQLKPLVDLTSRALARIIEGKNPEEIREIFHLPDDLTEEEKLEPLKNSMDDPRIRLLNRLYAKKRKELKERERLKNVEVEEHVDERSVDDLLSFINGRDHKAVKMSKGKKKKKKKKDQKIVSSNNIHDKESHDLRSKQQCVEEIGSSMREVPNLLSAEDDISTPNAGSEDEDIDDEIDPAMRELLDREVEDFAQRLNSNWVRSLGKERRPVHFSINGNGTTRRHTGMVSIWRPCMFTLF
B5: AGO5 (protein, UniProt Q9SJK3 1-997)
chain: MSNRGGGGHGGASRGRGGGRRSDQRQDQSSGQVAWPGLQQSYGGRGGSVSAGRGRGNVGRGENTGDLTATQVPVASAVSGGRGRGNIGDPTFSVASSSKTVSVASSSKEESKNTEVSETMSNLQITSTETKPEMTSLPPASSKAVTFPVRPGRGTLGKKVMVRANHFLVQVADRDLYHYDVSINPEVISKTVNRNVMKLLVKNYKDSHLGGKSPAYDGRKSLYTAGPLPFDSKEFVVNLAEKRADGSSGKDRPFKVAVKNVTSTDLYQLQQFLDRKQREAPYDTIQVLDVVLRDKPSNDYVSVGRSFFHTSLGKDARDGRGELGDGIEYWRGYFQSLRLTQMGLSLNIDVSARSFYEPIVVTDFISKFLNIRDLNRPLRDSDRLKVKKVLRTLKVKLLHWNGTKSAKISGISSLPIRELRFTLEDKSEKTVVQYFAEKYNYRVKYQALPAIQTGSDTRPVYLPMELCQIDEGQRYTKRLNEKQVTALLKATCQRPPDRENSIKNLVVKNNYNDDLSKEFGMSVTTQLASIEARVLPPPMLKYHDSGKEKMVNPRLGQWNMIDKKMVNGAKVTSWTCVSFSTRIDRGLPQEFCKQLIGMCVSKGMEFKPQPAIPFISCPPEHIEEALLDIHKRAPGLQLLIVILPDVTGSYGKIKRICETELGIVSQCCQPRQVNKLNKQYMENVALKINVKTGGRNTVLNDAIRRNIPLITDRPTIIMGADVTHPQPGEDSSPSIAAVVASMDWPEINKYRGLVSAQAHREEIIQDLYKLVQDPQRGLVHSGLIREHFIAFRRATGQIPQRIIFYRDGVSEGQFSQVLLHEMTAIRKACNSLQENYVPRVTFVIVQKRHHTRLFPEQHGNRDMTDKSGNIQPGTVVDTKICHPNEFDFYLNSHAGIQGTSRPAHYHVLLDENGFTADQLQMLTNNLCYTYARCTKSVSIVPPAYYAHLAAFRARYYMESEMSDGGSSRSRSSTTGVGQVISQLPAIKDNVKEVMFYC
B6: AGO10 (protein, UniProt Q9XGW1 1-988)
chain: MPIRQMKDSSETHLVIKTQPLKHHNPKTVQNGKIPPPSPSPVTVTTPATVTQSQASSPSPPSKNRSRRRNRGGRKSDQGDVCMRPSSRPRKPPPPSQTTSSAVSVATAGEIVAVNHQMQMGVRKNSNFAPRPGFGTLGTKCIVKANHFLADLPTKDLNQYDVTITPEVSSKSVNRAIIAELVRLYKESDLGRRLPAYDGRKSLYTAGELPFTWKEFSVKIVDEDDGIINGPKRERSYKVAIKFVARANMHHLGEFLAGKRADCPQEAVQILDIVLRELSVKRFCPVGRSFFSPDIKTPQRLGEGLESWCGFYQSIRPTQMGLSLNIDMASAAFIEPLPVIEFVAQLLGKDVLSKPLSDSDRVKIKKGLRGVKVEVTHRANVRRKYRVAGLTTQPTRELMFPVDENCTMKSVIEYFQEMYGFTIQHTHLPCLQVGNQKKASYLPMEACKIVEGQRYTKRLNEKQITALLKVTCQRPRDRENDILRTVQHNAYDQDPYAKEFGMNISEKLASVEARILPAPWLKYHENGKEKDCLPQVGQWNMMNKKMINGMTVSRWACVNFSRSVQENVARGFCNELGQMCEVSGMEFNPEPVIPIYSARPDQVEKALKHVYHTSMNKTKGKELELLLAILPDNNGSLYGDLKRICETELGLISQCCLTKHVFKISKQYLANVSLKINVKMGGRNTVLVDAISCRIPLVSDIPTIIFGADVTHPENGEESSPSIAAVVASQDWPEVTKYAGLVCAQAHRQELIQDLYKTWQDPVRGTVSGGMIRDLLISFRKATGQKPLRIIFYRDGVSEGQFYQVLLYELDAIRKACASLEPNYQPPVTFIVVQKRHHTRLFANNHRDKNSTDRSGNILPGTVVDTKICHPTEFDFYLCSHAGIQGTSRPAHYHVLWDENNFTADGIQSLTNNLCYTYARCTRSVSIVPPAYYAHLAAFRARFYLEPEIMQDNGSPGKKNTKTTTVGDVGVKPLPALKENVKRVMFYC

Molecular target: T1, 3HA-FBW2 (3x human influenza hemagglutinin (HA)-epitope at the N terminus of FBW2) (Arabidopsis thaliana)
Experiment: affinity purification with mass spectrometry; HA-tagged FBW2 purified on anti-HA magnetic microbeads from formaldehyde (0.375%) cross-linked extracts of FBW2OE and FBW2OE/ago1-27 seedlings treated with 20 μM MLN4924 for 20 h; Col-0 as control; nanoLC-MS/MS, spectral counts

Molecule | binding
CUL-like protein 1 | binds
RUB1 | binds
DNAJ homolog J2 | binds
Hsp70 | binds
Hsp90 | binds
ASK1 (Skp1-like protein) (from UniProt Q39255 1-160) | binds
cullin 1 (CUL1) (from UniProt Q94AH6 1-738) | binds
Hsp80 | binds
B1 | binds
B2 | binds
B3 | binds
B4 | binds
B5 | binds
B6 | binds
